Experimental findings from PubChem BioAssay AID1487 (National Center for Advancing Translational Sciences (NCATS), 2009) are described below.

As a reminder, the AC50 is the concentration at which the activity in the assay is half-maximal.

Some of the results follow. The main result of the screen is listed elsewhere. These columns were measured beside it and carry no call. The list favours compounds with an active or inconclusive main result. Potencies come from curve fits of mixed quality, noted in brackets.

This assay is described as follows: qHTS Assay for Modulators of Lamin A Splicing. Conditions: HeLa LMNA splicing GFP/RFP minigene ratio, 48 h. Summed up:
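S3 HeLa cells stably expressing lamin A-EGFP splicing minigene plus DsRed2, 600 cells/well, 48 h compound exposure at 37C. Laser-scanning cytometry; analysed as GFP (500-530 nm)/RFP (575-640 nm) total intensity ratio; 0.5% DMSO vehicle.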

Where [1] appears, read: measured here: RFP viability control channel.
Where [2] appears, read: measured here: GFP splicing reporter channel.

On to `c1ccc2c(CNc3ccc(CNc4ncn[nH]4)cc3)cccc2c1`, for which the AC50 under setting [1] is 20 µM [rising, single point].

For `COc1cc(C2Nc3ccc4ncccc4c3C3=C2C(=O)CCC3)ccc1O` (configuration not stated), the AC50 under setting [1] is 12.6 µM [rising, single point].

With `COc1cc2c(cc1OC)-c1cc3ccc(OC)c(OC)c3c[n+]1CC2`, the AC50 was 0.316 µM [falling, full curve, poor fit] under setting [2] and 0.501 µM [falling, full curve, poor fit] under setting [1].

For the molecule `COc1cccc(-c2ccc3ncnc(NC4CC4)c3c2)c1`, the concentration at half-maximal activity (AC50) reads like this: under setting [2], 14.1 µM [falling, partial curve]; under setting [1], 15.8 µM [falling, partial curve, poor fit].

Consider `COC(=O)[C@H]1[C@H]2C[C@@H]3c4[nH]c5cc(OC)ccc5c4CCN3C[C@H]2C[C@@H](OC(=O)c2cc(OC)c(OC)c(OC)c2)[C@@H]1OC`, for which the AC50 was 10 µM [falling, partial curve] under setting [2] and 17.8 µM [falling, partial curve] under setting [1].

Turning to `NC(=O)c1ccc(N=Cc2ccc([N+](=O)[O-])s2)cc1`, the AC50 under setting [2] is 35.5 µM [falling, single point].

With `Cn1c(CSCc2ccc(Cl)cc2)nnc1SCC(=O)Nc1nccs1`, the half-maximal activity concentration (AC50) under setting [1] was 11.2 µM [rising, partial curve, poor fit].

For the molecule `CN(C)c1ccc(/C=N/NC(=O)c2ccc(Cn3cc(Br)cn3)o2)cc1`, the concentration at half-maximal activity (AC50) under setting [2] is 35.5 µM [rising, partial curve, poor fit].

Consider `CCCCCn1c(=O)[nH]c2cc(C(=O)NCCCN(C)Cc3ccccc3)ccc2c1=O`, for which the AC50 under setting [2] is 1 µM [falling, full curve].

As for `CN1CCN(c2ccc(CNS(=O)(=O)c3ccccc3)cc2)CC1`, the AC50 under setting [2] is 0.0562 µM [rising, full curve, poor fit].

For `COc1ccc(N2CCN(c3c(S(=O)(=O)c4ccccc4)cnc4ccc(OC)cc34)CC2)cc1`, the AC50 under setting [1] was 35.5 µM [rising, single point].

In the case of `COC(=O)c1ccccc1OCCCOc1ccc(C)cc1OC`, under setting [2], the AC50 was 1.26 µM [falling, partial curve].

Turning to `O=C(Nc1ccc(S(=O)(=O)NC2CCCCC2)cc1)c1ccc(Br)o1`, the AC50 under setting [1] was 20 µM [rising, partial curve, poor fit].

Take `CCOC(=O)Cc1csc(/C(=N/O)C(N)=O)n1`: the AC50 under setting [2] was 22.4 µM [rising, single point].

`O=C(CC12CC3CC(CC(C3)C1)C2)NC(Cc1ccccc1)C(=O)O` (configuration not stated): under setting [1], the AC50 is 0.00447 µM [falling, full curve, poor fit].

Regarding `Cc1cc(C(C)(C)C)cc(C)c1COC(=O)C1CCC(=O)N1` (configuration not stated), under setting [1], the AC50 was 35.5 µM [rising, single point].

Turning to `COc1cc(CNC(=O)c2ccc3c(c2)N(C)C(=O)C2CCCCN32)cc(OC)c1OC` (configuration not stated), the AC50 under setting [2] is 0.00355 µM [falling, full curve, poor fit].

As to `Cc1ccccc1S(=O)(=O)c1c(C)cc(C)n(C(C)C)c1=O`, the AC50 reads like this: under setting [2], 35.5 µM [rising, single point]; under setting [1], 31.6 µM [rising, single point].

Turning to `O=C(CSc1ncnc2[nH]ncc12)Nc1nc(-c2ccc(F)c(F)c2)cs1`, under setting [2], the AC50 was 35.5 µM [falling, single point].

`Cc1nc2sc(C(c3ccco3)N3CCC(Cc4ccccc4)CC3)c(O)n2n1` (configuration not stated): under setting [2], the AC50 was 14.1 µM [rising, single point].

With `Cc1ccc(S(=O)(=O)N(C)C(=O)NC(=O)NS(=O)(=O)c2ccccc2)cc1`, the AC50 is 0.0224 µM [rising, full curve, poor fit] under setting [2] and 0.282 µM [rising, full curve, poor fit] under setting [1].

As to `COc1ccccc1-c1nnc(SCC(=O)Nc2ccccc2F)o1`, under setting [1], the AC50 was 10 µM [falling, partial curve, poor fit].

Consider `Cc1ccc(C(=O)N2CCN(S(=O)(=O)c3ccccc3)CC2)cc1`, for which the AC50 under setting [1] is 0.0355 µM [falling, full curve, poor fit].

For the molecule `CCCCC[C@H](O)/C=C/[C@H]1C=CC(=O)[C@@H]1C/C=C\CCCC(=O)O`, the AC50 was 0.0562 µM [falling, full curve, poor fit] under setting [2] and 0.00794 µM [falling, full curve, poor fit] under setting [1].

With `CS/C(=N\S(=O)(=O)c1cccs1)Nc1ccc(Cl)cc1`, the AC50 under setting [1] is 35.5 µM [rising, single point].

Regarding `COc1ccc(OCCNc2cc(Cl)ccc2[N+](=O)[O-])cc1`, under setting [1], the AC50 is 2 µM [rising, partial curve].

Consider `COc1ccc(NC(=O)C2CCN(Cc3cnn(-c4ccccc4)c3-n3cccc3)CC2)cc1OC`, for which the AC50 was 10 µM [rising, partial curve, poor fit] under setting [2] and 15.8 µM [rising, single point] under setting [1].

On to `CC(=O)Nc1nc2ccccc2n1Cc1ccccc1C`, for which the AC50 under setting [1] was 35.5 µM [rising, single point].

Take `Cc1nc2cc(NC(=O)c3ccc(N4C(=O)CCC4=O)cc3)ccc2s1`: under setting [1], the AC50 is 6.31 µM [falling, partial curve].

As to `Nc1c(C(=O)Nc2nc3ccccc3s2)sc2nc(-c3cccs3)ccc12`, the half-maximal activity concentration (AC50) under setting [2] was 1.58 µM [rising, full curve].

Consider `COc1cc(OC)c2c(C)c(Cl)c(=O)oc2c1`, for which, under setting [1], the AC50 is 0.00891 µM [falling, full curve, poor fit].

Take `O=c1cc(NS(=O)(=O)c2ccccc2)nc(SCc2ccccc2Cl)[nH]1`: the AC50 under setting [1] was 10 µM [rising, partial curve, poor fit].

On to `CCc1c(C)nc(SCC(=O)Nc2nc(-c3ccc(OC)cc3)cs2)[nH]c1=O`, for which the AC50 was 20 µM [rising, partial curve, poor fit] under setting [2] and 0.0112 µM [rising, full curve, poor fit] under setting [1].

`CN(Cc1ccco1)C(=O)c1ccc2c(c1)N(Cc1ccccc1F)C(=O)c1ccccc1S2`: the AC50 is 35.5 µM [rising, single point] under setting [2] and 31.6 µM [rising, single point] under setting [1].

`Cc1cc(C(=O)CSc2nc(N)cc(=O)[nH]2)c(C)n1-c1ccc(OC(F)F)cc1`: the AC50 under setting [2] is 3.98 µM [falling, full curve, poor fit].

As to `COc1cccc(-c2nc(NCc3ccccc3OC)c3ccccc3n2)c1`, the concentration at half-maximal activity (AC50) under setting [2] was 11.2 µM [falling, partial curve, poor fit] and the AC50 under setting [1] is 12.6 µM [falling, single point].

In the case of `Cc1cccc2sc(NC(=O)CN(C)S(=O)(=O)c3cccs3)nc12`, the AC50 by setting is: under setting [2], 31.6 µM [falling, single point]; under setting [1], 5.62 µM [falling, single point].

In the case of `COc1ccc(OC)c(C(c2nnnn2C2CCCC2)N2CCc3ccccc3C2)c1` (configuration not stated), the AC50 was 35.5 µM [rising, single point] under setting [2] and 22.4 µM [rising, single point] under setting [1].

In the case of `COc1ccc(-c2nnc(SCC(=O)Nc3cc(S(=O)(=O)N4CCCCC4)ccc3Cl)n2N)cc1`, the AC50 by setting is: under setting [2], 35.5 µM [rising, single point]; under setting [1], 35.5 µM [rising, single point].

Take `O=S(=O)(c1ccc2nc(SCc3ccc(Cl)cc3)[nH]c2c1)N1CCOCC1`: the half-maximal activity concentration (AC50) runs as follows: under setting [2], 20 µM [rising, single point]; under setting [1], 22.4 µM [rising, single point].

Turning to `Cc1cccc(N2CCN(C(=O)c3cccn4c(=O)c5cc(Cl)ccc5nc34)CC2C)c1` (configuration not stated), the AC50 is, setting by setting: under setting [2], 14.1 µM [falling, single point]; under setting [1], 11.2 µM [falling, partial curve, poor fit].

As for `C[C@H](NC(=O)N1CCc2nc(-c3ccccc3)c3c(c2C1)CO[C@@H](C)C3)c1ccccc1`, the concentration at half-maximal activity (AC50) under setting [2] is 0.000891 µM [rising, full curve, poor fit].

Take `CC(=O)c1c(N2CCN(Cc3ccccc3)CC2)nc(=S)n(Cc2ccccc2)c1C`: the half-maximal activity concentration (AC50) under setting [1] was 35.5 µM [rising, single point].

For `CCOC(=O)c1c(NC(=O)c2cc(-c3cccc(O)c3)on2)sc(C(C)=O)c1C`, under setting [1], the AC50 was 3.98 µM [rising, single point].

On to `CC(C)(CO)[C@@H](O)C(=O)NCCCO`, for which the AC50 under setting [2] is 0.794 µM [falling, single point].

On to `Cc1ccc(C)c(S(=O)(=O)N2CCN(CC(=O)Nc3ccc4c(c3)CCC4)CC2)c1`, for which, under setting [1], the AC50 was 31.6 µM [rising, single point].

Regarding `O=C1OC(C(=O)Nc2ccccc2)Cc2ccccc21` (configuration not stated), the AC50 is 5.62 µM [rising, partial curve, poor fit] under setting [2] and 3.55 µM [rising, single point] under setting [1].

Take `CCN(CC)S(=O)(=O)c1cccc(C(=O)N/N=C(\C)c2cccs2)c1`: under setting [2], the AC50 was 3.98 µM [falling, partial curve].

As for `O=S(=O)(NCc1ccccc1)c1ccc(S(=O)(=O)N(Cc2ccccn2)C2CCCC2)cc1`, the AC50 under setting [1] is 35.5 µM [rising, single point].

Turning to `O=C(c1cc(COc2ccc3ncccc3c2)on1)N1CCCCCC1`, the AC50 under setting [2] was 0.398 µM [falling, single point].

Turning to `O=C(CC(c1ccccc1)c1ccccc1)NCc1cccnc1`, the AC50 under setting [1] was 10 µM [rising, partial curve, poor fit].

On to `CCNc1ncc2nc(-c3cccs3)c(=O)n(C[C@H]3CCCO3)c2n1`, for which the AC50 is, setting by setting: under setting [2], 11.2 µM [falling, partial curve, poor fit]; under setting [1], 35.5 µM [falling, single point].

Consider `CC(C)CC(COCc1ccc(C(F)(F)F)cc1)N1CCN(C(=O)c2ccc(C(F)(F)F)cc2)CCC1=O` (configuration not stated), for which the AC50 under setting [2] was 12.6 µM [rising, single point] and the AC50 under setting [1] is 14.1 µM [rising, single point].

With `CCOC(=O)[C@H](CCc1ccccc1)N[C@@H](C)C(=O)N1[C@H](C(=O)O)C[C@H]2CCCC[C@@H]21`, the AC50 under setting [1] was 1.41 µM [rising, full curve].
